No constants are given. Whether binding was seen depends on the method and setting. Binding seen in cells or lysates may run through a third protein. These calls come from enrichment with a bait or labelling near it, and not all partners need be listed. For part of these data: A no says only that the protein was not detected with the bait.
Tests used:
MYC-BirA-SMN (human) [1] = target: MYC-BirA-SMN (human) (UniProt Q16637); test: proximity labelling; BioID: FLAG-tagged candidates co-expressed with MYC-BirA or MYC-BirA-SMN in HEK293T, doxycycline and biotin; biotinylated proteins purified on streptavidin-Sepharose, immunoblot
MYC-BirA-SMN (human) [2] = target: MYC-BirA-SMN (human) (UniProt Q16637); test: proximity labelling; BioID in stably transduced HEK293T (BirA, BirA-SMN, BirA-SMN Y109C), streptavidin-Sepharose, label-free quantitative mass spectrometry, triplicate; BirA-SMN compared with BirA alone and with BirA-SMN Y109C
MYC-BirA-SMN (human) [3] = target: MYC-BirA-SMN (human) (UniProt Q16637); test: proximity labelling; BioID: MYC-tagged BirA constructs transfected in HEK293T, doxycycline 1 µg/ml and biotin 50 µM for 24 h; biotinylated endogenous proteins pulled down with streptavidin-Sepharose, immunoblot
[4] = target: MYC-BirA-SMN_(E134K) (human) (UniProt Q16637); test: as above
[5] = target: MYC-BirA-SMN3YA (aromatic cage Y109A/Y127A/Y130A triple mutant) (human) (UniProt Q16637); test: as above
[6] = target: MYC-BirA-SMN_(Y109C) (human) (UniProt Q16637); test: as above

By UniProt entry, the sequences of proteins in these tests, tags left out. Where a name states a change or a piece, a line headed by the entry shows the natural chain unless it says otherwise.
UniProt Q16637: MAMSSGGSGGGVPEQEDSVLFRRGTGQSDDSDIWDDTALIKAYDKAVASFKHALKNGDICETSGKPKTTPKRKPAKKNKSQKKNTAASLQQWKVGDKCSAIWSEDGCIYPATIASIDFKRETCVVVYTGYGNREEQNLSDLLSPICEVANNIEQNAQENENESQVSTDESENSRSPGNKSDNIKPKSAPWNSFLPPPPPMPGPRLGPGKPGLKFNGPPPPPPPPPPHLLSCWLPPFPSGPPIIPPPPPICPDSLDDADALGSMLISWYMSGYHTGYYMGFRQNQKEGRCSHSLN
UniProt Q9BRJ7: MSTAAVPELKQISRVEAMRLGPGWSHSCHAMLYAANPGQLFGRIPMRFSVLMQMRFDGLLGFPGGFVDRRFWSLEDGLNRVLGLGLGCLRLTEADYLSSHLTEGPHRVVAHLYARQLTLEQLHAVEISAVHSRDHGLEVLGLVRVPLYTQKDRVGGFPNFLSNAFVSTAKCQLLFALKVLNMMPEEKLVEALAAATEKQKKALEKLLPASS
UniProt Q8TEQ6: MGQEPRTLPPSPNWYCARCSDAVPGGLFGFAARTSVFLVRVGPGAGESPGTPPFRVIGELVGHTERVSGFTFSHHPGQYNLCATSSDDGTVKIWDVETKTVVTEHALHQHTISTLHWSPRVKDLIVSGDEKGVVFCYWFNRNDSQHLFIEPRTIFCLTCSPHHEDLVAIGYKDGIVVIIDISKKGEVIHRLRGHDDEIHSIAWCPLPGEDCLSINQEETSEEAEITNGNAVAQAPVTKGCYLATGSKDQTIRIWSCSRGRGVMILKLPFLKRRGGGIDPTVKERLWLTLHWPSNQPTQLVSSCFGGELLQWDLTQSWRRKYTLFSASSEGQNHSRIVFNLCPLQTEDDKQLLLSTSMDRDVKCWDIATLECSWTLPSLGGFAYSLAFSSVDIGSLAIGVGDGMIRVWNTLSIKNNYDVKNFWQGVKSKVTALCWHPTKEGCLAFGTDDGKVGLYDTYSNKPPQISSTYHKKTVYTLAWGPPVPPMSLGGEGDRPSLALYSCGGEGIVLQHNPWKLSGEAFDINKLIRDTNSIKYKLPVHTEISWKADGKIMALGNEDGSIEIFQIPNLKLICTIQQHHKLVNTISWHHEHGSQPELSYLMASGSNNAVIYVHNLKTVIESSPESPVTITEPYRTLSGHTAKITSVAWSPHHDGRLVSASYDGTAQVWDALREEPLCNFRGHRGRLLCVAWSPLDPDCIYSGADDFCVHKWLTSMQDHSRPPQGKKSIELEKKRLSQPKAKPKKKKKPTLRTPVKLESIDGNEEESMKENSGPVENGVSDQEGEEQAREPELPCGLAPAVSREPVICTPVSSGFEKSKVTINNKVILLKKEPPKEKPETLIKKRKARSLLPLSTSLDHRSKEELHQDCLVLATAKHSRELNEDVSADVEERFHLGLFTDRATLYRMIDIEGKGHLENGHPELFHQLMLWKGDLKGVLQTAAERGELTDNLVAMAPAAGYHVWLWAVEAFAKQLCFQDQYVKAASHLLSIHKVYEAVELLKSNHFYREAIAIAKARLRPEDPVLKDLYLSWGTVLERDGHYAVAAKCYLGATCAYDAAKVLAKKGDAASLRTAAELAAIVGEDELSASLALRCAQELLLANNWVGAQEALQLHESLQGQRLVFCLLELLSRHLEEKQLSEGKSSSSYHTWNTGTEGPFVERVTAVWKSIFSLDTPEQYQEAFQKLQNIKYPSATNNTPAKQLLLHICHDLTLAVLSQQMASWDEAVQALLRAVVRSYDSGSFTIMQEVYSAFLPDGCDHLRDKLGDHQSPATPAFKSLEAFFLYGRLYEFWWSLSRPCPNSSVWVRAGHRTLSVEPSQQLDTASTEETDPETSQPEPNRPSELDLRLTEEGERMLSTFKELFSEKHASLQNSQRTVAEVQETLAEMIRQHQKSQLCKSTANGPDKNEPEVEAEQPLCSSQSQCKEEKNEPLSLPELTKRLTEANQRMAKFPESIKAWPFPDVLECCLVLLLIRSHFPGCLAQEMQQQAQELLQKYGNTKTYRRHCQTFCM
UniProt Q01844: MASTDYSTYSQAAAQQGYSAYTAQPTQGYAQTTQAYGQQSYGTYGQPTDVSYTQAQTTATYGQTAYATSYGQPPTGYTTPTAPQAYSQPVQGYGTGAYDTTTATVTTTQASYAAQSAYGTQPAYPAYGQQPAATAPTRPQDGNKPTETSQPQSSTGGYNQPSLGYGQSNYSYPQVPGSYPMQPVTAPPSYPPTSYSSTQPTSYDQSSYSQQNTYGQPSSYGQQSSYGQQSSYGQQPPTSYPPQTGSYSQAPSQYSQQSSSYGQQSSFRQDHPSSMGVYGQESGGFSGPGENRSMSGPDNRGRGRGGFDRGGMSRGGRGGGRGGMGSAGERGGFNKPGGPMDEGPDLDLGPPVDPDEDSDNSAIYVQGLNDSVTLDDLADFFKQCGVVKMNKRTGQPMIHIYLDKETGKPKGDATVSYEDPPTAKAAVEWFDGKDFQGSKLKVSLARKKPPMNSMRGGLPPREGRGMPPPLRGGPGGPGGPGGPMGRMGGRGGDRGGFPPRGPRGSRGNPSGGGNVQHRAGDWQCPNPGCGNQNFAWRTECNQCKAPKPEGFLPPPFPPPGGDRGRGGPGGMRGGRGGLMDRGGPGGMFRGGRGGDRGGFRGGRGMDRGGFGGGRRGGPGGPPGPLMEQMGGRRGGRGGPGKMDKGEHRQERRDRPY
UniProt P51114: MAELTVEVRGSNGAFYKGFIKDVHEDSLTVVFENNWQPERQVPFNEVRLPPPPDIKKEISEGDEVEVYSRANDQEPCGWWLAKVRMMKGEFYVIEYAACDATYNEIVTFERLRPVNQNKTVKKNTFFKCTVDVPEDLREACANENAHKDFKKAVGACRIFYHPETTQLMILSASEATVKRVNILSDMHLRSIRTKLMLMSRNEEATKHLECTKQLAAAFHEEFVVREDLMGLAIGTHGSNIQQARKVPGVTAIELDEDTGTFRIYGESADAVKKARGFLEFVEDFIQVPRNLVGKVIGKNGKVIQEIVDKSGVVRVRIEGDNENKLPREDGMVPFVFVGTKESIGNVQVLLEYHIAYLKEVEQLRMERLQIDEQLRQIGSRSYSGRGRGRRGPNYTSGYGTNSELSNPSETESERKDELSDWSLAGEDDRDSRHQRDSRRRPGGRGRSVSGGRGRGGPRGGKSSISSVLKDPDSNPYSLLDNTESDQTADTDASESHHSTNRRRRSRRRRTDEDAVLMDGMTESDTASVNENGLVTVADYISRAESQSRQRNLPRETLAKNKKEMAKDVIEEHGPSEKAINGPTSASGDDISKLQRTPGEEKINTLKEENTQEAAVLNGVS
UniProt O60573: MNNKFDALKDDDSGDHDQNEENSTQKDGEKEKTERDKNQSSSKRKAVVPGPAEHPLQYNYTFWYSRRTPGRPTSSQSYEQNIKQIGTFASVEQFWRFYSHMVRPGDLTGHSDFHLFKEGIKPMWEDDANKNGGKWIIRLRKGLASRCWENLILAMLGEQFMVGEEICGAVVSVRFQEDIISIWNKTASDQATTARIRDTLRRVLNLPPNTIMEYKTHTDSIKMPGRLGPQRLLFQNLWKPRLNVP
UniProt O14893: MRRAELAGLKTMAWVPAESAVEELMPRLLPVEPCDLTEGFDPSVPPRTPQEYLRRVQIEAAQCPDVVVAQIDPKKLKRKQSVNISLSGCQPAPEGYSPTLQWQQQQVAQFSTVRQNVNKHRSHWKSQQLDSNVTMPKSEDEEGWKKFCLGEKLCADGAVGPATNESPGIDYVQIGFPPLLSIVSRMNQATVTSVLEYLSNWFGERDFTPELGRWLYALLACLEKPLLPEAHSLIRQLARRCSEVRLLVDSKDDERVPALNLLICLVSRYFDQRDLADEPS
UniProt P06730: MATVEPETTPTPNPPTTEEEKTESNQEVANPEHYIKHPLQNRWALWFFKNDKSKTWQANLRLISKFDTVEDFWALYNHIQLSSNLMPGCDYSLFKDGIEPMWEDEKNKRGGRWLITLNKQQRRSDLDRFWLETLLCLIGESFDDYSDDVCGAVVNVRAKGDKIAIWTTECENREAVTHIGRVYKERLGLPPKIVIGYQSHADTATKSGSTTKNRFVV
UniProt O75420: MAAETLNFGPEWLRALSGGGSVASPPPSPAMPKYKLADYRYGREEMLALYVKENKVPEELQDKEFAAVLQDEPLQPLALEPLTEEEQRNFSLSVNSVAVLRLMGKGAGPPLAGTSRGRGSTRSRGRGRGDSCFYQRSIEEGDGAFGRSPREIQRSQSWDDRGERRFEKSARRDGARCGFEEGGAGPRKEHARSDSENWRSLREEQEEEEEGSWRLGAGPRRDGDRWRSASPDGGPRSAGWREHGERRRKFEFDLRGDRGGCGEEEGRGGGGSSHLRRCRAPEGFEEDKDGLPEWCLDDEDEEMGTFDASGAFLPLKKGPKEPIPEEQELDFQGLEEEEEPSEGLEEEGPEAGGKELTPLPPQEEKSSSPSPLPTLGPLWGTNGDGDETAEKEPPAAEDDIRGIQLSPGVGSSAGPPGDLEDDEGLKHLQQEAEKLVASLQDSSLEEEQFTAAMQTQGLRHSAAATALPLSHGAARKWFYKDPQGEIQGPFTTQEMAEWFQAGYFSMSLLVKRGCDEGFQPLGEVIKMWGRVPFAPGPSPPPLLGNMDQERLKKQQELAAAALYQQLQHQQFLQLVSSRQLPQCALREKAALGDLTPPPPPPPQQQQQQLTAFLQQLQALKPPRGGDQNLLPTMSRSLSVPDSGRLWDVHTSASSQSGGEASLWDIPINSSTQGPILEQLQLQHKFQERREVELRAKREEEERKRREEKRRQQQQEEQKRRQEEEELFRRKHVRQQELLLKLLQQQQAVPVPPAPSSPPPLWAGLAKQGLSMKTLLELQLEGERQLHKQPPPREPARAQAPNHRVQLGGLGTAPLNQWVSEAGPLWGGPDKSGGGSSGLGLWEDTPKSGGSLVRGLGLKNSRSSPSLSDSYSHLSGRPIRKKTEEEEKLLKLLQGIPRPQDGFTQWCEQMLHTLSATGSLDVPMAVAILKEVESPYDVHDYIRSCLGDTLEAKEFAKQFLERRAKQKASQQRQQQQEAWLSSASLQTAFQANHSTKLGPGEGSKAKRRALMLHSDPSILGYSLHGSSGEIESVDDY
UniProt Q9UKV8: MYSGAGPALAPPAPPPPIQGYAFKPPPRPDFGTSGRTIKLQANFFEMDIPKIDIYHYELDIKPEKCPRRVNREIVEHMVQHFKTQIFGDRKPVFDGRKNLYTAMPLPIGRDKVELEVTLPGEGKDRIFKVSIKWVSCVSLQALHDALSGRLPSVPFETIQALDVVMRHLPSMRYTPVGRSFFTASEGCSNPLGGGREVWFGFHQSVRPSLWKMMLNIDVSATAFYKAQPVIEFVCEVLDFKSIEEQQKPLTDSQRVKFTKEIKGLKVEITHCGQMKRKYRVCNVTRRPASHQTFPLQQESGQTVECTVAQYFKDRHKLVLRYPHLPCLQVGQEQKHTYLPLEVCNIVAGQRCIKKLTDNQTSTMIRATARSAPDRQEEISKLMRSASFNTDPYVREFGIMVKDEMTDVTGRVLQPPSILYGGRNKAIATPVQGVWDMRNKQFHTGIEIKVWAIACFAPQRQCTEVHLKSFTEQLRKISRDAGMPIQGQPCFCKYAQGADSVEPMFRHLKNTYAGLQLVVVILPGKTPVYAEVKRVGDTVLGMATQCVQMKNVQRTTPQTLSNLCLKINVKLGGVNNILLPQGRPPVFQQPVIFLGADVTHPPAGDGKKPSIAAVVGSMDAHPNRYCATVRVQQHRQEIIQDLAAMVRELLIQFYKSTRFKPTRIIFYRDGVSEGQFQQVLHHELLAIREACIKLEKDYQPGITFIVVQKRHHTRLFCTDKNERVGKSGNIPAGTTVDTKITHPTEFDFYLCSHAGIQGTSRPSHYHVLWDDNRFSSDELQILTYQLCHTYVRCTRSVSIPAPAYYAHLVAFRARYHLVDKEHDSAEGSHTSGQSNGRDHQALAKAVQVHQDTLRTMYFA
UniProt P38432: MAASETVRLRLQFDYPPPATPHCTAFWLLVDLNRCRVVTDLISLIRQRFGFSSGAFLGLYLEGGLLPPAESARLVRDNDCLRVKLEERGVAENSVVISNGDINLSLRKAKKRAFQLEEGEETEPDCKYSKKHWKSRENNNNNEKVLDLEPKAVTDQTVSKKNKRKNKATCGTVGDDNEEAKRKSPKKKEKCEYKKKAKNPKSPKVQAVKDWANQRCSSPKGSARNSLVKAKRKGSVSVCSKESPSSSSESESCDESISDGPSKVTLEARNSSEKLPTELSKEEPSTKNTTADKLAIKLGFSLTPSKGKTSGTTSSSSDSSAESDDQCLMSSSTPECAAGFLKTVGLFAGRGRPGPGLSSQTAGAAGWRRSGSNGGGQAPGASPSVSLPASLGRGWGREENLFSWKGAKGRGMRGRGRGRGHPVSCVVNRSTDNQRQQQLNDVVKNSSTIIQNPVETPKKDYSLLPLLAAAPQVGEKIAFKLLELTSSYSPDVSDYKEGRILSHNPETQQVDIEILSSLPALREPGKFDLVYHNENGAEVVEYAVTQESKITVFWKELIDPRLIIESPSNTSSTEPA

Row | Substance | binding (MYC-BirA-SMN (human) [2]) | also measured
1 | FLAG-TIRR (from UniProt Q9BRJ7 1-211) | – | binding (MYC-BirA-SMN (human) [1]): no binding
2 | GEMIN5 (from UniProt Q8TEQ6 1-1508) | binds | –
3 | EWSR1 (from UniProt Q01844 1-656) | binds | –
4 | fragile X-related protein 1 (FXR1), endogenous (from UniProt P51114 1-621) | binds | –
5 | FUS (from UniProt P35637 1-526) | binds | –
6 | eIF4E2 (from UniProt O60573 1-245) | binds | –
7 | GEMIN2 (from UniProt O14893 1-280) | binds | binding (MYC-BirA-SMN (human) [3]): binds; binding [4]: binds; binding [5]: binds; binding [6]: binds
8 | PRMT5 (from UniProt O14744 1-637) (enzyme) | binds | –
9 | eIF4E (from UniProt P06730 1-217) | binds | –
10 | GIGYF1 (from UniProt O75420 1-1035) | binds | –
11 | GEMIN7 (from UniProt Q9H840 1-131) | binds | –
12 | AGO2 (from UniProt Q9UKV8 1-859) | binds | –
13 | FLAG-FXR1 (from UniProt P51114 1-621) | – | binding (MYC-BirA-SMN (human) [1]): binds
14 | WRAP53 (from UniProt Q9BUR4 1-548) | binds | –
15 | GEMIN3 (from UniProt Q9UHI6 1-824) | binds | –
16 | FOCAD (from UniProt Q5VW36 1-1801) | binds | –
17 | GEMIN6 (from UniProt Q8WXD5 1-167) | binds | –
18 | COILIN (from UniProt P38432 1-576) | – | binding [4]: binds weakly; binding [5]: no binding; binding [6]: binds weakly

From paper PMC9684302
